Results on 1 substance are retold here after PMC11991697.

Amino acid sequences for entries named in this document (tags omitted).
UniProt Q05086: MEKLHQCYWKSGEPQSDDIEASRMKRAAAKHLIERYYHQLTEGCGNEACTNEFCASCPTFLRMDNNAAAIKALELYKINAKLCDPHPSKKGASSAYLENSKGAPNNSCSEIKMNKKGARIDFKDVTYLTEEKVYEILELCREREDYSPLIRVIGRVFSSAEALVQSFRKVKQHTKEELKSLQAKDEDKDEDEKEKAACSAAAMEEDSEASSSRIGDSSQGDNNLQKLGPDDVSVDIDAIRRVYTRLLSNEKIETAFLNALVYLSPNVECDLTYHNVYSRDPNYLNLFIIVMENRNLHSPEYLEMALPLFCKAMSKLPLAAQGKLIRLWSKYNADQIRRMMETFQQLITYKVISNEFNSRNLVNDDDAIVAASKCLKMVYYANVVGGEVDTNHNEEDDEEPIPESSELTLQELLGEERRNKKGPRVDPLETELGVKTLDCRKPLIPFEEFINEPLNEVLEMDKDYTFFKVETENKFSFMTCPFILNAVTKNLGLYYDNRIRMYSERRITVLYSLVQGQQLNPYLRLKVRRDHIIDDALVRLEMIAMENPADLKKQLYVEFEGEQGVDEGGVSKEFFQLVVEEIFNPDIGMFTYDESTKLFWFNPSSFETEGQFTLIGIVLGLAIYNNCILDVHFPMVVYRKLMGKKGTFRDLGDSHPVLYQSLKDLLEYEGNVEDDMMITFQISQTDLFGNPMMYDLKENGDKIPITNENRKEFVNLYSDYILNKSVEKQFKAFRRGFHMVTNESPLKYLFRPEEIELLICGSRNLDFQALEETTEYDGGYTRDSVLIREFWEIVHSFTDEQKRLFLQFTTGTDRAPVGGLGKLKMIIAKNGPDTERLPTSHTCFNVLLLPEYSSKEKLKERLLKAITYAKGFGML

The target in the assay is T1, Flag-FRMD8 (human) (UniProt Q9BZ67).
T1 sequence: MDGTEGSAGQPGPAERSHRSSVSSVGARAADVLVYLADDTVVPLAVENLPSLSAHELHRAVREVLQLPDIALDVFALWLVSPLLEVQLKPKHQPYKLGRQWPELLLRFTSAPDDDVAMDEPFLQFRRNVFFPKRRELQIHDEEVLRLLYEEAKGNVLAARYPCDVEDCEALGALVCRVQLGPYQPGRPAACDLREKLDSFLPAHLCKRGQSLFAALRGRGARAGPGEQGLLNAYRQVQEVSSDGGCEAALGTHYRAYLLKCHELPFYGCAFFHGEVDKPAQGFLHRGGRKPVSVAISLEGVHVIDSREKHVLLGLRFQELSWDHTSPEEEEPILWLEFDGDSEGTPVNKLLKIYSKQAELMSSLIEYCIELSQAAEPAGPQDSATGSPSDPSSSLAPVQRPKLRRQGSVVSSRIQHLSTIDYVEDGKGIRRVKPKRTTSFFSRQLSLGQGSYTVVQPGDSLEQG
The assay is described as follows: affinity purification with mass spectrometry; HEK293A cells transiently expressing Flag-FRMD8 or empty vector, anti-Flag M2 agarose beads overnight at 4°C, PBS washes, SDS-PAGE, LC-MS/MS.

Results are given in words; binding and its absence hold for the method and conditions named. Binding seen in cells or lysates may run through a third protein. Here binding means that the protein was enriched with, or labelled near, the bait; the list need not be complete. Sequences can lack the tags named with a protein.

With “endogenous UBE3A (from UniProt Q05086 1-875) (enzyme)”, the binding entry was “binds”.
